{
  "source": "patent US20060105013A1",
  "about": "“Osteopontin-coated surfaces and methods of use” (priority 2000, published 2006)",
  "assay": "Binding of 35S-labeled rhOPN to titanium disks with or without CaCl2",
  "conditions": "24 h at 4° C.",
  "data": [
    {"substance": "rhOPN: human recombinant phosphorylated form of osteopontin", "values": [
      {"measurement": "rhOPN at which Ti disks saturate", "setting": "absence of added CaCl2", "result": 60, "unit": "µg"},
      {"measurement": "rhOPN at which Ti disks saturate", "setting": "presence of 100 mM CaCl2", "result": "more than 110 μg protein/disks"}
    ]}
  ]
}
